# Test results taken from PubChem BioAssay AID493014 (National Center for Advancing Translational Sciences (NCATS), 2011).
# Out of some 340,000 compounds screened, about 170 (0.05%) were called active. The shares of active, inactive and inconclusive entries below differ from those in the screen. The call rests on the fitted dose curve; in most records, active means well fitted inhibition curve with a large enough effect in the signal ratio, with a control signal flat (not every such curve was filed as active); inconclusive means small, poorly fitted or top-dose-only effect, or effect the other way, or a change in a side signal; inactive means flat fitted curve, though single readings scatter; the % refers to the signal ratio. A potency beside an inconclusive call is a rough fit, not a confirmed value.
# Test: qHTS Assay to Find Inhibitors of Chronic Active B-Cell Receptor Signaling;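 on activity change, negative = inhibition: plate controls were basal doxycycline-induced cells for no effect and cells given 10 µM MG132 for full effect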
# Conditions: ABC-DLBCL IkBa-CBG/CBR reporter, luminescence ratio (green luciferase fused to IkBa over red control in TMD8 lymphoma cells), 4 h; activity change, negative = inhibition: at 46.1 µM (top of the series)
# In short: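 Cell line TMD8 (human ABC DLBCL), stably expressing tet-inducible CBG68-IkBa fusion and CBR; IMDM/0.5% FBS; cpd up to 46 uM; dox induction, 4 h, 37C/5% CO2; dual luminescence; green/red ratio; MG132 control.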
# Potency means the concentration at half of the fitted maximal effect.
SMILES,Potency,"activity change, negative = inhibition"
CS/C(=N\S(=O)(=O)c1cccs1)Nc1ccc(F)cc1,"inconclusive: 23.1 µM [falling, single point]",–
COc1ccc([C@H]2CC(=O)C=C(c3ccc4ccccc4c3)C2)cc1OC,–,inactive: -3.95%
Cc1ccc(-c2nc3scc(CCNS(=O)(=O)c4ccc(Oc5ccccc5)cc4)n3n2)cc1,"inconclusive: 5.62 µM [falling, partial curve, poor fit]",–
Cc1c(Cl)c([N+](=O)[O-])nn1CC(=O)N1CCN(C23CC4CC(CC(C4)C2)C3)CC1,"inconclusive: 7.94 µM [falling, partial curve, poor fit]",–
Cc1cccc(/C(N)=N/OC(=O)N2c3ccccc3Sc3ccccc32)c1,–,inconclusive: -11.9%
CC(C)(C)C(=O)COC(=O)c1cc(-c2ccncc2)nc2ccccc12,–,inactive: -8.44%
c1ccc(N2CCN(Cc3ccsc3)CC2)nc1,–,inactive: 9.64%
Cc1ccc(C)c(OC2=NS(=O)(=O)c3ccccc32)c1,–,inconclusive: 2.54%
COc1ccc(NC(=O)COC(=O)CC2CCCC2)cc1,–,inconclusive: 4.3%
N#Cc1ccccc1NC(=O)CN1C(=O)NC(Cc2c[nH]c3ccccc23)C1=O (configuration not stated),"inconclusive: 23.1 µM [falling, partial curve]",–
Cc1ccc(-n2cc(-c3ccccc3)c3c(N4CCN(C)CC4)ncnc32)cc1,–,inactive: -1.82%
O=C(NNC(=O)c1ccccc1Br)c1ccc2nc[nH]c2c1,"inconclusive: 22.4 µM [falling, single point]",–
Cc1ccc(SCC(=O)NCC(C)C)cc1,–,inactive: -5.3%
CCCCOC(=O)c1ccc(NC(=O)c2c(Cl)ccc(Cl)c2OC)cc1,–,inactive: 3.81%
COc1ccc(NC(=O)c2cc3ccccc3o/c2=N\NS(=O)(=O)c2ccc(C)cc2)cc1,"inconclusive: 22.4 µM [falling, single point]",–
CCOc1ccc(S(=O)(=O)Nc2ccc(C(=O)N/N=C(\C)c3ccc(-n4ccnc4)cc3)cc2)cc1,"inconclusive: 18.4 µM [falling, partial curve]",–
CCOC(=O)Nc1sc2c(c1C(=O)OCC)CCC2,–,inconclusive: -0.947%
CCOC(=O)c1c(C2CC2)csc1NC(=O)COC(=O)CCS(=O)(=O)c1ccc(C)cc1,"inconclusive: 6.51 µM [falling, partial curve, poor fit]",–
CN1CCN(c2nc3c(c(=O)n(C)c(=O)n3C)n2Cc2cccc(Br)c2)CC1,–,inconclusive: -4.54%
CCOC(=O)N1CCC(NC2CCCCCCC2)CC1,–,inconclusive: 5.95%
O=C(CNc1cccc2ccccc12)N/N=C/C=C/c1ccco1,"inconclusive: 17.8 µM [falling, single point]",–
Cc1ccc(Sc2ccc(CN3CCCCC3)cc2[N+](=O)[O-])cc1,–,inconclusive: 21.5%
Cc1cccc(OCC(=O)NCc2ccc3c(c2)CCN3C(=O)c2ccc(Cl)cc2)c1,–,inactive: 25.5%
CCOC(=O)C1=C(C)N(C)C(=O)NC1c1ccccc1OC (configuration not stated),–,inactive: 0.33%
COc1ccc(NC(=O)COc2ccccc2C#N)c(S(=O)(=O)N2CCCCC2)c1,–,inconclusive: -19%
CCN(CC)S(=O)(=O)c1ccc(S(=O)(=O)Nc2c(C)nn(C)c2C)cc1,–,inactive: 0.245%

# Some values from the results shown:
# activity change, negative = inhibition with `CCN(CC)S(=O)(=O)c1ccc(S(=O)(=O)Nc2c(C)nn(C)c2C)cc1` reads inactive: 0.245%
# activity change, negative = inhibition with `Cc1ccc(SCC(=O)NCC(C)C)cc1` reads inactive: -5.3%
# activity change, negative = inhibition with `COc1ccc(NC(=O)COc2ccccc2C#N)c(S(=O)(=O)N2CCCCC2)c1` reads inconclusive: -19%
# activity change, negative = inhibition with `CCCCOC(=O)c1ccc(NC(=O)c2c(Cl)ccc(Cl)c2OC)cc1` reads inactive: 3.81%

# More results.

SMILES,Potency,"activity change, negative = inhibition"
C/C(=N\NC(=S)Nc1ccc(C)cc1)c1cccc(N)c1,"inconclusive: 17.8 µM [falling, partial curve, poor fit]",–
CNC(=S)N(CCc1ccc(S(N)(=O)=O)cc1)C1CC(=O)N(c2ccccc2F)C1=O (configuration not stated),–,inactive: -11.2%
CSCCC(NC(=O)c1ccccc1)C(=O)NCCCSc1ccccc1 (configuration not stated),–,inactive: -8.65%
CC(=O)Nc1cccc(N=NN2CCOCC2)c1,–,inconclusive: -13.5%
O=C(NCc1nnc(SCC(=O)N2CCc3ccccc32)o1)c1ccco1,–,inactive: 1.49%
CCCCCCOc1ccc(NC(=O)CC2C(=O)N(CC)C(=S)N2Cc2ccco2)cc1 (configuration not stated),–,inactive: 13.8%
COc1ccc(C/C(C)=N/NC(=O)c2cc(C)oc2C)cc1,"inconclusive: 20.6 µM [falling, partial curve]",–
O=C(N/N=C/c1ccc(O)cc1)c1cc(C2CC2)[nH]n1,"inconclusive: 12.6 µM [falling, partial curve, poor fit]",–
O=Cc1ccc(OCc2nnc(-c3ccccc3Br)o2)cc1,"inconclusive: 11.2 µM [falling, partial curve]",–
CCCN1CCC(=O)N(CCSc2ccccc2)CC1,–,inactive: 11.7%
COc1ccc(-c2ccc(-c3noc(-c4ccc(OC)c(OC)c4)n3)c(OC)n2)cc1,–,inconclusive: 2.28%
Nc1nc(NCc2ccccc2)nc(-c2ccccc2)n1,–,inconclusive: 12.1%
O=C(N/N=C/c1cccnc1)C1CCCCC1,"inconclusive: 11.2 µM [falling, partial curve]",–
Cc1nn(C)c(Sc2ccccn2)c1[N+](=O)[O-],–,inactive: -5.2%
Cc1ccc(Cn2ccsc2=NC(=O)CCl)cc1,"inconclusive: 25.1 µM [falling, single point]",–
O=C(CSc1ncnc2sc3c(c12)CCC3)Nc1ccccc1C(=O)O,"inconclusive: 0.794 µM [falling, full curve]",–
O=C(NC1CCCC1)c1cc(-c2ccccc2Cl)on1,"inconclusive: 31.6 µM [rising, single point]",–
COc1cc(/C=N/NC(=O)c2cc(C)oc2C)cc(OC)c1OC,"inconclusive: 15.8 µM [falling, partial curve]",–
O=c1[nH]ncc(N/N=C\c2cccs2)c1Cl,"inconclusive: 15.8 µM [falling, single point]",–
CC1CCN(C(=O)CCc2nnc(-c3ccccc3)o2)CC1,–,inactive: -3.19%
CC(/C=C/c1ccco1)=N/NC(=O)CNc1ccccc1C,–,inactive: -15.2%
O=C(O)c1ccc(Oc2cc(Oc3ccc(C(=O)O)cc3)cc([N+](=O)[O-])c2)cc1,–,inconclusive: -11.8%
CCn1c2ccc(C)cc2c2nnc(SCCN3CCCCC3)nc21,–,inactive: 9.39%
C=CCNC(=O)COc1ccc(Br)cc1Cl,–,inconclusive: -0.263%
CCCc1ccc(-c2cc(C(=O)NCCc3ccc(S(N)(=O)=O)cc3)c3ccccc3n2)cc1,–,inconclusive: -1.85%
O=C1Nc2ccccc2C1(O)c1ccccc1 (configuration not stated),–,inconclusive: 2.87%
